Results reported in publication PMC9708791.
These are yes or no findings as the source states them, for the method shown. Binding seen in cells or lysates may run through a third protein. Some binding calls cover weakened binding; strength is not graded here. For some assays here: Where a sequence is shown, tags or fusion partners need not be part of it.

Chains of the proteins cited; added tags and fusions are not shown.
UniProt Q9WV60: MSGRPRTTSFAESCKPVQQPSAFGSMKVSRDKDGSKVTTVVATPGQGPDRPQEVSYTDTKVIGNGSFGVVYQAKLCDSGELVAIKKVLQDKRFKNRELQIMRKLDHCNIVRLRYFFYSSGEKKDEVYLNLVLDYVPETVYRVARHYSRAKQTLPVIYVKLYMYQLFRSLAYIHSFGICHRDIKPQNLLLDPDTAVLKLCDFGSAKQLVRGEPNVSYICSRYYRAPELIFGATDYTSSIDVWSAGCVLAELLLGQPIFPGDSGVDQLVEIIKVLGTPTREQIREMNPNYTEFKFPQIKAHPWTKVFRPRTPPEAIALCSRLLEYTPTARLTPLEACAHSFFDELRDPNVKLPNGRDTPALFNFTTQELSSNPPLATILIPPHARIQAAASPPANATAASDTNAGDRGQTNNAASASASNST
UniProt P49841: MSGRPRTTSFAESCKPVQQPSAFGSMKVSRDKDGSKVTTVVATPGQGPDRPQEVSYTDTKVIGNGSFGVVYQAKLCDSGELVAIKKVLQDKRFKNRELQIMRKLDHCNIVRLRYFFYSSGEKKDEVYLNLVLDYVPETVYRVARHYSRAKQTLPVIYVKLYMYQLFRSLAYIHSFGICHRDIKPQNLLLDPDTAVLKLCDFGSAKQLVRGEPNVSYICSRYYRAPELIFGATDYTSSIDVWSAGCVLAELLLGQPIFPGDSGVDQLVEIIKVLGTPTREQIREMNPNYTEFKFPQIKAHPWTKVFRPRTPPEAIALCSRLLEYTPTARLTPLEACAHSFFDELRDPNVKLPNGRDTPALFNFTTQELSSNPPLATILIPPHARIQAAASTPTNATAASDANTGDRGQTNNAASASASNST
UniProt O54943: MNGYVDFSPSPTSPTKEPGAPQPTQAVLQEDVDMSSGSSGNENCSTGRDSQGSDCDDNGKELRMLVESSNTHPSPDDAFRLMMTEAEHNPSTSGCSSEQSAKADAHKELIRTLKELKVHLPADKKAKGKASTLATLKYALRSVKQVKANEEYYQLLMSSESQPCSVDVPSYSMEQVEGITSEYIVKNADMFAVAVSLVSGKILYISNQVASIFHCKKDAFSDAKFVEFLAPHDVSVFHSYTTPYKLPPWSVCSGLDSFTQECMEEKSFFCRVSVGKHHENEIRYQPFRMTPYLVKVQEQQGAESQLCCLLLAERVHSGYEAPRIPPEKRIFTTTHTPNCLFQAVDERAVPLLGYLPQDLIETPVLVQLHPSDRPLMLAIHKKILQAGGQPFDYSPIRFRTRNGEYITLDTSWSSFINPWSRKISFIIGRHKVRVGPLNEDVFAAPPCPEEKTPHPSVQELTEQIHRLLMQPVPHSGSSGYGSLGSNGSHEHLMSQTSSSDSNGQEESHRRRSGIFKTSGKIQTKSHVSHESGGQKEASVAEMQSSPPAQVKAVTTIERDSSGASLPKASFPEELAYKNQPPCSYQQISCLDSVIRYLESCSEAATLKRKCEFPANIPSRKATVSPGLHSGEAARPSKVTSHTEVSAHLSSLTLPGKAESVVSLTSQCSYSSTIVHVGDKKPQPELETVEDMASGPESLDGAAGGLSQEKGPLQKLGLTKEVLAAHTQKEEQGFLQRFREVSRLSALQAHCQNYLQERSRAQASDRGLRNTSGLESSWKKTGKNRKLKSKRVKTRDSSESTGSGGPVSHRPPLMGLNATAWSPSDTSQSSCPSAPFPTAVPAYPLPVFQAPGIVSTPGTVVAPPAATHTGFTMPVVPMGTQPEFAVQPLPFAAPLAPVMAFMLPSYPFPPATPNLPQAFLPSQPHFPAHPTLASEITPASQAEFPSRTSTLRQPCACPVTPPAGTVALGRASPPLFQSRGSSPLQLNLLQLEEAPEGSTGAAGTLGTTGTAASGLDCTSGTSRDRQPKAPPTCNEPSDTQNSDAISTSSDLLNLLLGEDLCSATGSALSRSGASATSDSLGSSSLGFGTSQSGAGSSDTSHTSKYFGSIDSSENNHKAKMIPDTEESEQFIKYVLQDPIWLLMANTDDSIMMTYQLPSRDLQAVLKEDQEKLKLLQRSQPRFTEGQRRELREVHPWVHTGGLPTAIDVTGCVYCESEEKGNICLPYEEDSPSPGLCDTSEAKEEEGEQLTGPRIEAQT

How the values were obtained:
[1] = target: T1, Human Per2 with V5 tag, stably overexpressed in 293T cells (Per2-OE) (human) (UniProt O15055); assay: co-IP; 293T cells stably overexpressing Per2-V5, transfected with HA-GSK3β wild type or S9A, collected 12 h after LDR (10 cGy); extract in 1x RIPA buffer, antibody on Protein A or G magnetic beads, overnight at 4°C
T1 sequence: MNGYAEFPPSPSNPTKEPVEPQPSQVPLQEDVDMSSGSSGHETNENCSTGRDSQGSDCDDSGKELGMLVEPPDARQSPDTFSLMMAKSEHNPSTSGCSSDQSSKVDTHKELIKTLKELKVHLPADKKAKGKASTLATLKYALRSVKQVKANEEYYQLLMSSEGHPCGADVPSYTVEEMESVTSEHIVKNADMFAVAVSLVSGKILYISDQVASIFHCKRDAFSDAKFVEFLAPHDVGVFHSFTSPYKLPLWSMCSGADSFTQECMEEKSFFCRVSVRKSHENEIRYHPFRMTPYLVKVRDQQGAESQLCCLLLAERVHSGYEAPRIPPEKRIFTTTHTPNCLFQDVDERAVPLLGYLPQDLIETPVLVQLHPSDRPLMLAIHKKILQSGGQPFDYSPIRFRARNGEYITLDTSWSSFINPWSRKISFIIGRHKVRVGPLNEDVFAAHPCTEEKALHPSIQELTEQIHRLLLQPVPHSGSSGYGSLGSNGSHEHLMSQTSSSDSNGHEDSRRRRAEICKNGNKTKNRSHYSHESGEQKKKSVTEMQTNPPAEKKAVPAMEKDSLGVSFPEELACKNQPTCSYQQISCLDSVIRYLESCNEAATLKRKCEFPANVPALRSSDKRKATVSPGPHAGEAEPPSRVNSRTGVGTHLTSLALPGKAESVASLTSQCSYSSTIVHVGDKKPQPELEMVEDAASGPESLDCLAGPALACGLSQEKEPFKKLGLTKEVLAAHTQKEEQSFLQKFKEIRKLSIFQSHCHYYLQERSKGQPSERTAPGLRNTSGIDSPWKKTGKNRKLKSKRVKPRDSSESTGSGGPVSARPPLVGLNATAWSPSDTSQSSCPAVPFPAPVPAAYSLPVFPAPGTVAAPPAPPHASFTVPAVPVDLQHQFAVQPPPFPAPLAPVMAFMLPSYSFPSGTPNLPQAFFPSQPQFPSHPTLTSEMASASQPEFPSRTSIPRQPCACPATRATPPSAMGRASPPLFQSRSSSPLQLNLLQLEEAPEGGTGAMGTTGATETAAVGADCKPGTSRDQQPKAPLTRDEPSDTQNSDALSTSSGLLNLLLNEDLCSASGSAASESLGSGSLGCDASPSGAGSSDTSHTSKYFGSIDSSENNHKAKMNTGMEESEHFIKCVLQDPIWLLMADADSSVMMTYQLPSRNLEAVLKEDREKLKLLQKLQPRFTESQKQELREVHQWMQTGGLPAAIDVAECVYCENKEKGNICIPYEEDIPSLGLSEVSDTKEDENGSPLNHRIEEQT

[2] = target: GSK3β phosphorylated at Ser9, mouse, endogenous in Per2wt/GSK3βwt MEFs (mouse (endogenous in MEFs)) (UniProt Q9WV60); assay: co-IP; endogenous proteins of Per2wt/GSK3βwt MEFs, non-LDR control and 12 h after LDR (10 cGy); IP with anti-Per2 and blot with anti-pGSK3β(Ser9), and the reverse; 500 μg extract in 1x RIPA buffer, antibody on Protein A or G magnetic beads, overnight at 4°C

binding [1]	binding [2]	Substance
binds		HA-tagged wild-type GSK3β, transfected into Per2-OE 293T cells (from UniProt P49841 1-420) (enzyme)
	binds	PERIOD 2 (PER2), mouse, endogenous in Per2wt/GSK3βwt MEFs (from UniProt O54943 1-1257)
